Measured values from paper PMC2267488.

Chains of the proteins cited; added tags and fusions are not shown. Lines headed by an entry give the natural chain unless they say otherwise; changes in a name come on top.
UniProt Q8IYF3: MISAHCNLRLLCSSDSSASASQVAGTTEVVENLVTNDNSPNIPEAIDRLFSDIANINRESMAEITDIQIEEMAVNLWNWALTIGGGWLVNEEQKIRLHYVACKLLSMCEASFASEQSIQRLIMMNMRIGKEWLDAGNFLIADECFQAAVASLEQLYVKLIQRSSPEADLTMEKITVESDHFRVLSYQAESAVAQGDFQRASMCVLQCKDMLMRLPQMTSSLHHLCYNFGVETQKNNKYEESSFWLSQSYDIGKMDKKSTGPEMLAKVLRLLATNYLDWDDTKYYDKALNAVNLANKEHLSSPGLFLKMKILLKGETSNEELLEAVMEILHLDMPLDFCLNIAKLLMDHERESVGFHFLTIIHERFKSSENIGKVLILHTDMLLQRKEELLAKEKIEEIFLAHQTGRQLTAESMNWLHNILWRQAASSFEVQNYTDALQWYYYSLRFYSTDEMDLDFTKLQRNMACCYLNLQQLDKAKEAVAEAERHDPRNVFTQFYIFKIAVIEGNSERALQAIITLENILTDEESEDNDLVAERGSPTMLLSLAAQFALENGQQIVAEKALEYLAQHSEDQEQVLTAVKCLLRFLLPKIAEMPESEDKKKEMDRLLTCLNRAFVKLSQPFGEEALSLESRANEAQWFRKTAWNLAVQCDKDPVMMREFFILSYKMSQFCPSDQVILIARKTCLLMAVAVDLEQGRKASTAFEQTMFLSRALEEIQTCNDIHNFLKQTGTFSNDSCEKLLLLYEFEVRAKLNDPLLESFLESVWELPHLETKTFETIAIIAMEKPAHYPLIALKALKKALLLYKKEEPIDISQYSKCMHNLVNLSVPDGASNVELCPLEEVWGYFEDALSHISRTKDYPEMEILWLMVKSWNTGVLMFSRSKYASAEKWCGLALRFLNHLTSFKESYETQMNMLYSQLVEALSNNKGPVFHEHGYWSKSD
UniProt O60934: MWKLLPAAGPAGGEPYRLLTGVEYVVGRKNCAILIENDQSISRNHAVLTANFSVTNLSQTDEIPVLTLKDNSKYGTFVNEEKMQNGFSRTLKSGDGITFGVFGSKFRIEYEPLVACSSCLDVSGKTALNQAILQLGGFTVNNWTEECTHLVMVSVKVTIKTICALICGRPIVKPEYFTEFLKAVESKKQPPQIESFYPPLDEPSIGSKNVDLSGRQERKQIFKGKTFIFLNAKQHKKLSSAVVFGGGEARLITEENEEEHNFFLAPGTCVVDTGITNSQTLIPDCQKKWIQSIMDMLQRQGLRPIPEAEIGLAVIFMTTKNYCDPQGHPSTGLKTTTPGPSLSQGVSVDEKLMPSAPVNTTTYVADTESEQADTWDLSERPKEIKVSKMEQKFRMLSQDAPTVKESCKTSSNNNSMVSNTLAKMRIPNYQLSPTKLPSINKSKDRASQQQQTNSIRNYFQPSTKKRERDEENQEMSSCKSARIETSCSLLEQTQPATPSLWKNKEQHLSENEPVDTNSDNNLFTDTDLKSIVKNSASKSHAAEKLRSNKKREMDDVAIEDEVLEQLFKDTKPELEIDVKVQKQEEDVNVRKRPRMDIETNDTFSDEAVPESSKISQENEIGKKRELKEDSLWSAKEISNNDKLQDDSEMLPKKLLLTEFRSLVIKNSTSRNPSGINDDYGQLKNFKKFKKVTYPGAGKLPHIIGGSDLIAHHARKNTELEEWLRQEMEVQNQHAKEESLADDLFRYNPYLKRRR

Molecular target: MYC-tagged human ZIP4H (human) (UniProt Q8IYF3)
Assay: co-IP; IP-Western blots on 293T cells transiently expressing MYC-tagged human ZIP4H; endogenous NBS1

binding: binds weakly
Substance: Endogenous human NBS1 (from UniProt O60934 1-754)

These are yes or no findings as the source states them, for the method shown. Binding seen in cells or lysates may run through a third protein. A result given as binding can be weak or reduced; the word gives no strength.
